# Source: PubChem BioAssay AID1259405 (NCATS, 2018)
# Aim: 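Silenced genes that increase secreted GFP made by CHO cells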 (primary screen)
# System: Chinese hamster CHO-K1 ovary cells with stable secreted eGFP expression
# Knock-down reagent: single siRNA against mouse genes, 0.8 pmol siRNA per well (2 µl of 400 nM stock)
# Time to read-out: 3 days
# Measurement: 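Percent of the per-plate non-targeting control median for intracellular GFP per well by laser scanning cytometry and for cell viability by ATP luminescence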
# Direction: GFP, % of control: higher = more GFP per well, higher productivity; viability (ATP), % of control: higher = more viable cells (more ATP)
# Rule for the call: 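Called active when intracellular GFP, relative to negative control, is at or above 120%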
# The deposit covers about 50,000 reagents; shown is a part drawn at random. In the full data, about 4,000 (8%) were called active. 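Mouse siRNA library applied to hamster cells; one well for each siRNA.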 Entries without a mark were called inactive. Reagents against one gene are numbered here.
gene,siRNA no.,"GFP, % of control","viability (ATP), % of control"
Or8g17 (olfactory receptor family 8 subfamily G member 17),1,58.5,70.1
Or8g17 (olfactory receptor family 8 subfamily G member 17),2,139 (active),80.4
Or8g17 (olfactory receptor family 8 subfamily G member 17),3,75,105
"Tgfbr1 (transforming growth factor, beta receptor I)",1,105,107
"Tgfbr1 (transforming growth factor, beta receptor I)",2,128 (active),83.9
"Tgfbr1 (transforming growth factor, beta receptor I)",3,84.1,83.2
Cmklr1 (chemerin chemokine-like receptor 1),1,135 (active),66.5
Cmklr1 (chemerin chemokine-like receptor 1),2,50.9,63.7
Cmklr1 (chemerin chemokine-like receptor 1),3,85.8,61.5
Pkd1l3 (polycystic kidney disease 1 like 3),1,114,86.8
Pkd1l3 (polycystic kidney disease 1 like 3),2,107,75.6
Pkd1l3 (polycystic kidney disease 1 like 3),3,82.3,77.3
Pi15 (peptidase inhibitor 15),1,83.5,80.2
Pi15 (peptidase inhibitor 15),2,92.3,56.4
Pi15 (peptidase inhibitor 15),3,117,103
"Rab40c (Rab40C, member RAS oncogene family)",1,116,102
"Rab40c (Rab40C, member RAS oncogene family)",2,105,85.1
"Rab40c (Rab40C, member RAS oncogene family)",3,87,70.6
Ifnar2 (interferon (alpha and beta) receptor 2),1,55.7,58.6
Ifnar2 (interferon (alpha and beta) receptor 2),2,74.7,65.4
Ifnar2 (interferon (alpha and beta) receptor 2),3,53.4,94.3
Cul3 (cullin 3),1,76.2,68.6
Cul3 (cullin 3),2,126 (active),58.2
Cul3 (cullin 3),3,80.1,110
"Prim2 (DNA primase, p58 subunit)",1,111,124
"Prim2 (DNA primase, p58 subunit)",2,96.6,108
Or7e176 (olfactory receptor family 7 subfamily E member 176),1,72.2,66.5
Or7e176 (olfactory receptor family 7 subfamily E member 176),2,15.2,24.4
Or7e176 (olfactory receptor family 7 subfamily E member 176),3,103,113
Chd1l (chromodomain helicase DNA binding protein 1-like),1,183 (active),88.1
Chd1l (chromodomain helicase DNA binding protein 1-like),2,65.5,71.1
Chd1l (chromodomain helicase DNA binding protein 1-like),3,59.1,72
Wdr24 (WD repeat domain 24),1,75.8,62.1
Wdr24 (WD repeat domain 24),2,80.8,64.7
Wdr24 (WD repeat domain 24),3,49.6,47.9
Hs3st6 (heparan sulfate (glucosamine) 3-O-sulfotransferase 6),1,149 (active),78.7
Hs3st6 (heparan sulfate (glucosamine) 3-O-sulfotransferase 6),2,84.5,100
Hs3st6 (heparan sulfate (glucosamine) 3-O-sulfotransferase 6),3,50.6,48.6
Taf9b (TATA-box binding protein associated factor 9B),1,74.8,61.8
Taf9b (TATA-box binding protein associated factor 9B),2,74.8,61.8
Cetn1 (centrin 1),1,97.4,105
Cetn1 (centrin 1),2,70.2,75.3
Mpzl3 (myelin protein zero-like 3),1,60,50.3
Mpzl3 (myelin protein zero-like 3),2,85,58.8
Mpzl3 (myelin protein zero-like 3),3,55.6,67.2
Tro (trophinin),1,66.2,32.7
Tro (trophinin),2,80.5,26.7
Tro (trophinin),3,127 (active),92.6
Naca (nascent polypeptide-associated complex alpha polypeptide),1,128 (active),93.3
Naca (nascent polypeptide-associated complex alpha polypeptide),2,47.1,33.5
Hhip (Hedgehog-interacting protein),1,77.9,68.4
Hhip (Hedgehog-interacting protein),2,130 (active),95.8
Hhip (Hedgehog-interacting protein),3,103,70.4
Or4c3 (olfactory receptor family 4 subfamily C member 3),1,147 (active),106
Or4c3 (olfactory receptor family 4 subfamily C member 3),2,96.5,85.8
Or4c3 (olfactory receptor family 4 subfamily C member 3),3,112,112
Med6 (mediator complex subunit 6),1,96.9,90.2
Med6 (mediator complex subunit 6),2,90.2,67.2
Mblac2 (metallo-beta-lactamase domain containing 2),1,69.8,64
Mblac2 (metallo-beta-lactamase domain containing 2),2,76.9,76.2
Mblac2 (metallo-beta-lactamase domain containing 2),3,48.5,59.8
"Aldh18a1 (aldehyde dehydrogenase 18 family, member A1)",1,91.1,96.5
"Aldh18a1 (aldehyde dehydrogenase 18 family, member A1)",2,94.1,94.8
"Aldh18a1 (aldehyde dehydrogenase 18 family, member A1)",3,123 (active),92.7
Gramd4 (GRAM domain containing 4),1,97.4,86.9
Gramd4 (GRAM domain containing 4),2,55.8,79
Gramd4 (GRAM domain containing 4),3,140 (active),114
"B3gat2 (beta-1,3-glucuronyltransferase 2)",1,112,124
"B3gat2 (beta-1,3-glucuronyltransferase 2)",2,16.1,45
"B3gat2 (beta-1,3-glucuronyltransferase 2)",3,94.2,103
A630023P12Rik (RIKEN cDNA A630023P12 gene),1,62.5,83.1
A630023P12Rik (RIKEN cDNA A630023P12 gene),2,34.5,23
A630023P12Rik (RIKEN cDNA A630023P12 gene),3,66.7,69.8
Gm9871 (predicted gene 9871),1,77.8,96.5
Gm9871 (predicted gene 9871),2,59.3,77.5
Gm9871 (predicted gene 9871),3,78.7,77.8
Mgat3 (mannoside acetylglucosaminyltransferase 3),1,83.6,81.2
Mgat3 (mannoside acetylglucosaminyltransferase 3),2,95.2,97.7
Mgat3 (mannoside acetylglucosaminyltransferase 3),3,85.8,86.1
"Dnaaf1 (dynein, axonemal assembly factor 1)",1,91.1,79.1
"Dnaaf1 (dynein, axonemal assembly factor 1)",2,45.8,46.6
"Dnaaf1 (dynein, axonemal assembly factor 1)",3,81.7,128
"Tnni2 (troponin I, skeletal, fast 2)",1,54.1,45.9
"Tnni2 (troponin I, skeletal, fast 2)",2,74.2,71.1
"Tnni2 (troponin I, skeletal, fast 2)",3,87.2,53

Copied from the list.
Naca (nascent polypeptide-associated complex alpha polypeptide) #1, GFP, % of control → 128 (active)
Or7e176 (olfactory receptor family 7 subfamily E member 176) #1, GFP, % of control → 72.2
Value for Rab40c (Rab40C, member RAS oncogene family) #1 under “viability (ATP), % of control”: 102
For “viability (ATP), % of control”, Hhip (Hedgehog-interacting protein) #2 is entered as 95.8 (active)
For “viability (ATP), % of control”, Tgfbr1 (transforming growth factor, beta receptor I) #2 is entered as 83.9 (active)
Taf9b (TATA-box binding protein associated factor 9B) #1, viability (ATP), % of control → 61.8
